Source: PMC3283658
No constants are given. Whether binding was seen depends on the method and setting. Binding seen in cells or lysates may run through a third protein. Some binding calls cover weakened binding; strength is not graded here.

Chains of the proteins cited; added tags and fusions are not shown. Residues count along the entry.
UniProt Q13261, residues 31-267: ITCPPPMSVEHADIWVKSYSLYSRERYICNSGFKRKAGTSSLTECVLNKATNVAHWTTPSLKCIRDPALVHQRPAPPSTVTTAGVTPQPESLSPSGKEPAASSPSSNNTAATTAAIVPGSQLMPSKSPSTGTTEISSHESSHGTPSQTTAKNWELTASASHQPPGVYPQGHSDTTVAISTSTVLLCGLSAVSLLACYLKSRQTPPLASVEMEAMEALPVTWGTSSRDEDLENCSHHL
UniProt P14784, residues 27-551: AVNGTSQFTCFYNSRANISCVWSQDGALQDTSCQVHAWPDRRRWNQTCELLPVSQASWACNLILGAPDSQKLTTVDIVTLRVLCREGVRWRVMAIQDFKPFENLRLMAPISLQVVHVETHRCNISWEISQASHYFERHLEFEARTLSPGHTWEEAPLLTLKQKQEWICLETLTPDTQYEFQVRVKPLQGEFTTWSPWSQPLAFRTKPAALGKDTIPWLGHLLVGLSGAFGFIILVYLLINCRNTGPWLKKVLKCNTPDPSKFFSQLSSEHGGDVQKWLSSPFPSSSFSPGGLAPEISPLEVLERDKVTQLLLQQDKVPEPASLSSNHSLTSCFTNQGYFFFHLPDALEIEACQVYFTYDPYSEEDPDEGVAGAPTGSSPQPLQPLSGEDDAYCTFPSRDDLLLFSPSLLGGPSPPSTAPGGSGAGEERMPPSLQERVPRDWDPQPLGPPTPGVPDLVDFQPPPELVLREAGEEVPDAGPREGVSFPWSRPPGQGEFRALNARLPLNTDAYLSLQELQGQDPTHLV

Molecular target: IL-15Rα chain (human (endogenous in RCC7)) (UniProt Q13261)
Test: co-IP; RCC7 cell lysate (1% NP-40, 0.1% SDS, 50 mM sodium phosphate pH 7.8, 150 mM NaCl); Sepharose-conjugated anti-IL-15Rα M161, 4 h at 4°C; blots with anti-IL-2Rβ and anti-IL-15Rα; no cytokine added

Question: “IL-2Rβ chain (from UniProt P14784 27-551) (receptor)” was tested. Which binding did it give?
Answer: Its binding is “binds”.
